# From the supplement of paper PMC8728848
# The list shows a part of the results.
# B1: Epf (Streptococcus pyogenes) (protein)
# chain: GDHGPEFNGVMVVKAAEAEELPDDLMNFKGTWEVSADGSSGRFFSKGATDSYVFHLIPAKDVKKPGWREHNEVKDSYIKIDKQSIAARYKTSTTAPYSVAFKVNTKSLIKDHDYKITFEQGQIASGITVDYRIGSAFNKTTDDSFKISDESKYASNVKIEGEEQGFKQREQGDKTISFRTLKEGPMSLVLLSKVEKKPQGDLDVEFKNLKIIDVTNPSQLDKGVAYVGNKNVQLTLKSDDGRTNFEGDEISLFNSRGELLQTVTVTKDQQNPISITLSEDQAKSLKNKEKLKVSIKQKQSKKTSKDFFFEVGIDPKVEAKQKEKLLELDKVKKQIEDSINGDAWLPEKPVDLQGDHGLSAWSHPQFEK
# What was measured:
# Assay in all cases: glycan array binding signal (z-score within array); higher = stronger binding
# Conditions in all cases: glycan notation: IUPAC condensed, linker removed
# Gal(b1-3)Gal = biological target: Gal(b1-3)Gal
# Procedure, shortened: (§1)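 Glycan array data were curated from 3228 arrays in the Consortium for Functional Glycomics database and kept only where the protein sequence was available. Glycan names were converted to IUPAC-condensed notation, and columns mapping to the same glycan were averaged. The binding signal is a within-array Z-score, averaged across arrays of the same protein sequence at different concentrations or buffers and across linkers. Negative Z-scores can be read as non-binding.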
# Gal(b1-3)Gal(b1-4)GlcNAc = biological target: Gal(b1-3)Gal(b1-4)GlcNAc
# Procedure, shortened: as §1
# Gal(b1-3)GalNAc = biological target: Gal(b1-3)GalNAc
# Procedure, shortened: as §1
# [1] = biological target: Gal(b1-3)GalNAc(a1-3)[Fuc(a1-2)]Gal(b1-4)Glc
# Procedure, shortened: as §1
# [2] = biological target: Gal(b1-3)GalNAc(a1-3)[Fuc(a1-2)]Gal(b1-4)GlcNAc
# Procedure, shortened: as §1
# Gal(b1-3)GalNAc(b1-3)Gal = biological target: Gal(b1-3)GalNAc(b1-3)Gal
# Procedure, shortened: as §1
# [3] = biological target: Gal(b1-3)GalNAc(b1-3)Gal(a1-4)Gal(b1-4)Glc
# Procedure, shortened: as §1
# [4] = biological target: Gal(b1-3)GalNAc(b1-4)Gal(b1-4)Glc
# Procedure, shortened: as §1
# [5] = biological target: Gal(b1-3)GalNAc(b1-4)[Neu5Ac(a2-3)]Gal(b1-4)Glc
# Procedure, shortened: as §1
# Gal(b1-3)GlcNAc = biological target: Gal(b1-3)GlcNAc
# Procedure, shortened: as §1
# [6] = biological target: Gal(b1-3)GlcNAc(a1-3)Gal(b1-4)GlcNAc
# Procedure, shortened: as §1
# [7] = biological target: Gal(b1-3)GlcNAc(a1-6)Gal(b1-4)GlcNAc
# Procedure, shortened: as §1
# Gal(b1-3)GlcNAc(b1-2)Man = biological target: Gal(b1-3)GlcNAc(b1-2)Man
# Procedure, shortened: as §1
# [8] = biological target: Gal(b1-3)GlcNAc(b1-2)Man(a1-3)[Gal(b1-3)GlcNAc(b1-2)Man(a1-6)]Man(b1-4)GlcNAc(b1-4)GlcNAc
# Procedure, shortened: as §1
# [9] = biological target: Gal(b1-3)GlcNAc(b1-2)Man(a1-3)[Gal(b1-3)GlcNAc(b1-2)Man(a1-6)]Man(b1-4)GlcNAc(b1-4)[Fuc(a1-6)]GlcNAc
# Procedure, shortened: as §1
# [10] = biological target: Gal(b1-3)GlcNAc(b1-2)Man(a1-3)[GlcNAc(b1-4)][Gal(b1-3)GlcNAc(b1-2)Man(a1-6)]Man(b1-4)GlcNAc(b1-4)GlcNAc
# Procedure, shortened: as §1
# [11] = biological target: Gal(b1-3)GlcNAc(b1-2)[Gal(b1-3)GlcNAc(b1-6)]Man(a1-6)[Gal(b1-3)GlcNAc(b1-2)Man(a1-3)]Man(b1-4)GlcNAc(b1-4)GlcNAc
# Procedure, shortened: as §1
# [12] = biological target: Gal(b1-3)GlcNAc(b1-3)Gal(b1-3)GlcNAc
# Procedure, shortened: as §1
# [13] = biological target: Gal(b1-3)GlcNAc(b1-3)Gal(b1-4)Glc
# Procedure, shortened: as §1
# [14] = biological target: Gal(b1-3)GlcNAc(b1-3)Gal(b1-4)GlcNAc
# Procedure, shortened: as §1
# [15] = biological target: Gal(b1-3)GlcNAc(b1-3)Gal(b1-4)GlcNAc(b1-2)Man(a1-3)[Gal(b1-3)GlcNAc(b1-3)Gal(b1-4)GlcNAc(b1-2)Man(a1-6)]Man(b1-4)GlcNAc(b1-4)GlcNAc
# Procedure, shortened: as §1
# [16] = biological target: Gal(b1-3)GlcNAc(b1-3)Gal(b1-4)GlcNAc(b1-2)[Gal(b1-3)GlcNAc(b1-3)Gal(b1-4)GlcNAc(b1-6)]Man(a1-6)[Gal(b1-3)GlcNAc(b1-3)Gal(b1-4)GlcNAc(b1-2)Man(a1-3)]Man(b1-4)GlcNAc(b1-4)[Fuc(a1-6)]GlcNAc
# Procedure, shortened: as §1
# [17] = biological target: Gal(b1-3)GlcNAc(b1-3)Gal(b1-4)GlcNAc(b1-3)Gal(b1-4)GlcNAc(b1-2)[Gal(b1-3)GlcNAc(b1-3)Gal(b1-4)GlcNAc(b1-3)Gal(b1-4)GlcNAc(b1-6)]Man(a1-6)[Gal(b1-3)GlcNAc(b1-3)Gal(b1-4)GlcNAc(b1-3)Gal(b1-4)GlcNAc(b1-2)Man(a1-3)]Man(b1-4)GlcNAc(b1-4)[Fuc(a1-6)]GlcNAc
# Procedure, shortened: as §1
# [18] = biological target: Gal(b1-3)GlcNAc(b1-3)Gal(b1-4)GlcNAc(b1-6)[Gal(b1-3)GlcNAc(b1-3)]Gal(b1-4)Glc
# Procedure, shortened: as §1
# [19] = biological target: Gal(b1-3)GlcNAc(b1-3)Gal(b1-4)[Fuc(a1-3)]GlcNAc(b1-6)[Gal(b1-3)GlcNAc(b1-3)]Gal(b1-4)Glc
# Procedure, shortened: as §1
# [20] = biological target: Gal(b1-3)GlcNAc(b1-3)GalNAc
# Procedure, shortened: as §1
# [21] = biological target: Gal(b1-3)GlcNAc(b1-6)Gal(b1-4)GlcNAc
# Procedure, shortened: as §1
# [22] = biological target: Gal(b1-3)GlcNAc(b1-6)GalNAc
# Procedure, shortened: as §1
# [23] = biological target: Gal(b1-3)GlcNAc(b1-6)[Gal(b1-3)]GalNAc
# Procedure, shortened: as §1
# Gal(b1-3)GlcNAc6S = biological target: Gal(b1-3)GlcNAc6S
# Procedure, shortened: as §1
# [24] = biological target: Gal(b1-3)[Fuc(a1-4)]GlcNAc
# Procedure, shortened: as §1
# [25] = biological target: Gal(b1-3)[Fuc(a1-4)]GlcNAc(b1-2)Man
# Procedure, shortened: as §1
# [26] = biological target: Gal(b1-3)[Fuc(a1-4)]GlcNAc(b1-2)Man(a1-3)[Gal(b1-3)[Fuc(a1-4)]GlcNAc(b1-2)Man(a1-6)]Man(b1-4)GlcNAc(b1-4)[Fuc(a1-6)]GlcNAc
# Procedure, shortened: as §1
# [27] = biological target: Gal(b1-3)[Fuc(a1-4)]GlcNAc(b1-3)Gal(b1-3)[Fuc(a1-4)]GlcNAc
# Procedure, shortened: as §1
# [28] = biological target: Gal(b1-3)[Fuc(a1-4)]GlcNAc(b1-3)Gal(b1-4)GlcNAc
# Procedure, shortened: as §1
# [29] = biological target: Gal(b1-3)[Fuc(a1-4)]GlcNAc(b1-3)Gal(b1-4)[Fuc(a1-3)]GlcNAc
# Procedure, shortened: as §1
# [30] = biological target: Gal(b1-3)[Fuc(a1-4)]GlcNAc(b1-6)GalNAc
# Procedure, shortened: as §1
binder,measurement,setting,value
B1,glycan array binding signal (z-score),Gal(b1-3)Gal,0.665
same,glycan array binding signal (z-score),Gal(b1-3)Gal(b1-4)GlcNAc,0.618
same,glycan array binding signal (z-score),Gal(b1-3)GalNAc,0.189
same,glycan array binding signal (z-score),[1],0.846
same,glycan array binding signal (z-score),[2],1.04
same,glycan array binding signal (z-score),Gal(b1-3)GalNAc(b1-3)Gal,0.131
same,glycan array binding signal (z-score),[3],0.325
same,glycan array binding signal (z-score),[4],-0.182
same,glycan array binding signal (z-score),[5],-0.938
same,glycan array binding signal (z-score),Gal(b1-3)GlcNAc,-0.762
same,glycan array binding signal (z-score),[6],-0.486
same,glycan array binding signal (z-score),[7],-0.243
same,glycan array binding signal (z-score),Gal(b1-3)GlcNAc(b1-2)Man,1.06
same,glycan array binding signal (z-score),[8],-0.502
same,glycan array binding signal (z-score),[9],-2.14
same,glycan array binding signal (z-score),[10],0.69
same,glycan array binding signal (z-score),[11],0.299
same,glycan array binding signal (z-score),[12],-0.13
same,glycan array binding signal (z-score),[13],0.13
same,glycan array binding signal (z-score),[14],-1.43
same,glycan array binding signal (z-score),[15],-0.269
same,glycan array binding signal (z-score),[16],1.64
same,glycan array binding signal (z-score),[17],0.062
same,glycan array binding signal (z-score),[18],2.25
same,glycan array binding signal (z-score),[19],3.16
same,glycan array binding signal (z-score),[20],-0.5
same,glycan array binding signal (z-score),[21],-0.606
same,glycan array binding signal (z-score),[22],-1.04
same,glycan array binding signal (z-score),[23],0.349
same,glycan array binding signal (z-score),Gal(b1-3)GlcNAc6S,-1.28
same,glycan array binding signal (z-score),[24],0.268
same,glycan array binding signal (z-score),[25],-0.741
same,glycan array binding signal (z-score),[26],0.179
same,glycan array binding signal (z-score),[27],-1.88
same,glycan array binding signal (z-score),[28],-0.641
same,glycan array binding signal (z-score),[29],-0.197
same,glycan array binding signal (z-score),[30],0.662

# A different layout for part of the listing above:
binder	measurement	setting	value
B1	glycan array binding signal (z-score)	[27]	-1.88
same	glycan array binding signal (z-score)	[30]	0.662
